Assay results: patent US10544090B2, “Anthraquinone analogs and methods of making and using thereof” (Georgia State University Research Foundation, Inc., priority 2012, dated 2020)
At least one compound was matched to its structure with a doubt left.

Key:
[1] = test system: HeLa; assay: MTT cytotoxicity evaluation of series 1 and 2 rhein analogues, HeLa (Tables 3, 4); type: cell-based; settings: less than 50% cells killed at highest concentration; R^2 < 0.8; read-out: IC50 (μM) against HeLa, value inside parenthesis calculated by Prism 4 using sigmoidal curve fitting
[2] = test system: MOLT4; assay: MTT cytotoxicity evaluation of series 1 and 2 rhein analogues, MOLT4 (Tables 3, 4); settings: read-out: IC50 (μM) against MOLT4, value inside parenthesis calculated by Prism 4 using sigmoidal curve fitting; less than 50% cells killed at highest concentration; R^2 < 0.8

O=C1c2cccc(O)c2C(=O)c2c(O)cc(-c3cccs3)cc21 [Compound 26b, 1,8-Dihydroxy-3-(thiophen-2′-yl)-anthraquinone]
IC50 [1]: 36 µM | IC50 [2]: 37 µM
